Here are results for one molecule from publication PMC7520452.

No constants are given. Whether binding was seen depends on the method and setting. Binding seen in cells or lysates may run through a third protein. Where a sequence is shown, tags or fusion partners need not be part of it.

In this assay the target is Myc–CUL4. Nature of the assay: co-IP; 293T cells co-transfected with FLAG–Borealin and HA- or Myc-tagged partner, 10 µM MG132 for 5 h; extracts immunoprecipitated with polyclonal antibody against HA or Myc, immunoblotting. (Immunoblotting shows a protein as a band on a membrane.)

B1: FLAG-tagged wild-type (WT) borealin (protein, UniProt Q53HL2 1-280)
chain: MAPRKGSSRVAKTNSLRRRKLASFLKDFDREVEIRIKQIESDRQNLLKEVDNLYNIEILRLPKALREMNWLDYFALGGNKQALEEAATADLDITEINKLTAEAIQTPLKSAKTRKVIQVDEMIVEEEEEEENERKNLQTARVKRCPPSKKRTQSIQGKGKGKRSSRANTVTPAVGRLEVSMVKPTPGLTPRFDSRVFKTPGLRTPAAGERIYNISGNGSPLADSKEIFLTVPVGGGESLRLLASDLQRHSIAQLDPEALGNIKKLSNRLAQICSSIRTHK
Regarding B1, the binding result was “no binding”.
